Data as given in PubChem BioAssay AID652259 (Drosophila RNAi Screening Center, 2013).
Aim: 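Genome-wide hunt for genes that control Wingless pathway activity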 (primary screen). Cell system: Drosophila clone 8 imaginal disc epithelial cells. Reagents: long dsRNA against Drosophila genes. Treatment: pathway stimulated by co-transfected Wingless expression plasmid. Detection: 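Dual luciferase reads per well after Wingless plasmid stimulation: reporter firefly light and Renilla control light; activity is firefly divided by Renilla, a ratio not deposited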. Scale: firefly reporter light: higher = more Wg reporter light, before normalisation; Renilla control light: higher = more transfected or surviving cells. Active means: 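Strong candidates differ from their plate mean by at least two out of four per-plate statistical tests; weak candidates meet just one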. Calls: active = candidate regulator (raises or lowers reporter); inactive = not a candidate.
The deposit covers about 22,000 reagents; below is a random part of those that have a named target and a result. In the full data, 233 (1.1%) are marked active. 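Light values are raw, unnormalised plate reads; the ratio scores behind the reporter calls were not deposited.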 Unmarked entries are inactive. A plus sign joins genes that one reagent is predicted to hit. The record does not give: the amount of reagent, the time to read-out, the dose of the treatment.

| Target gene | DRSC id | reporter change call, replicate 1 | firefly reporter light, replicate 1 | firefly reporter light, replicate 2 | Renilla control light, replicate 1 | Renilla control light, replicate 2 |
| --- | --- | --- | --- | --- | --- | --- |
| CG11634 | DRSC03700 | – | 2025 | 6746 | 672 | 2609 |
| CG4213 | DRSC00641 | – | 2727 | 8218 | 1010 | 2886 |
| CG10163 | DRSC09710 | – | 923 | 7249 | 954 | 3232 |
| CG17597 | DRSC02630 | – | 7833 | – | 1644 | – |
| Rpp21 | DRSC22480 | – | 7.52e5 | 7.30e5 | 3.34e5 | 1.83e5 |
| CG10185 | DRSC14205 | – | 13893 | – | 3768 | – |
| Coq6 | DRSC03040 | – | 8216 | – | 2572 | – |
| mtSSB | DRSC17005 | – | 22322 | – | 5401 | – |
| CG31441 | DRSC15723 | – | 14245 | – | 4275 | – |
| ab | DRSC01162 | – | 21533 | – | 4840 | – |
| ab | DRSC03478 | – | 1968 | 7418 | 409 | 861 |
| CG12729 | DRSC17884 | – | 17812 | – | 8355 | – |
| CkIalpha | DRSC20231 | Wg reporter activity raised (active) | 1.07e5 | – | 7161 | – |
| CkIalpha | DRSC22609 | – | 1.99e6 | 1.94e6 | 1.29e5 | 1.28e5 |
| CG8031 | DRSC16364 | – | 9148 | – | 3180 | – |
| CG12219 | DRSC17829 | – | 8198 | – | 6057 | – |
| CG14628 | DRSC18626 | – | 23287 | – | 14170 | – |
| CG11839 | DRSC14398 | – | 21930 | – | 16775 | – |
| Obp19c | DRSC20528 | – | 12416 | – | 9527 | – |
| CG10232 | DRSC14218 | – | 11830 | – | 9763 | – |
| CG12723 | DRSC19499 | – | 23315 | 7.34e5 | 11513 | 3.22e5 |
| CG8209 | DRSC10970 | – | 1609 | 8313 | 1428 | 3180 |
| Dlip3 | DRSC07401 | – | 5155 | – | 2706 | – |
| Mst57Dc | DRSC16745 | – | 12128 | – | 12508 | – |
| Gasz | DRSC06829 | – | 7842 | – | 2461 | – |
| Acbp4 | DRSC11023 | – | 2152 | 5491 | 1314 | 2725 |
| Ntan1 | DRSC07546 | – | 9728 | – | 2759 | – |
| CG2444 | DRSC19846 | – | 17469 | – | 8677 | – |
| CG40486 | DRSC20619 | – | 2517 | 4745 | 739 | 1969 |
| CG3045 | DRSC04331 | – | 10882 | – | 2969 | – |
| CG40439 | DRSC22707 | – | 4.71e5 | 4.68e5 | 2.47e5 | 61504 |
| smp-30 | DRSC17059 | – | 13360 | – | 2539 | – |
| beat-IIa | DRSC14813 | – | 16268 | – | 4744 | – |
| beat-IIa | DRSC14814 | – | 10870 | – | 2215 | – |
| mRpL2 | DRSC10896 | – | 5984 | – | 2208 | – |
| CG6665 | DRSC07006 | – | 15659 | – | 4293 | – |
| Scamp | DRSC20286 | – | 17648 | – | 9933 | – |
| CG14589 | DRSC04866 | – | 2484 | 6344 | 898 | 2541 |
| CG3735 | DRSC04411 | – | 13325 | – | 3221 | – |
| CG7196 (retired record) | DRSC01000 | – | 17388 | – | 8248 | – |
| CG7196 (retired record) | DRSC03023 | – | 3002 | 3754 | 1028 | 2053 |
| Lip2 | DRSC02577 | – | 3044 | 5130 | 1270 | 3178 |
| Lip2 | DRSC02578 | – | 2755 | 7712 | 1094 | 3897 |
| CG10920 | DRSC17765 | – | 18288 | – | 9241 | – |
| CG10979 | DRSC12153 | – | 15194 | – | 3952 | – |
| gas | DRSC04521 | – | 2387 | 5936 | 599 | 1364 |
| fws | DRSC02969 | – | 6866 | – | 2656 | – |
| CG6675 | DRSC03735 | – | 3819 | 5925 | 1344 | 2208 |
| CG5731 | DRSC02883 | – | 2697 | 6848 | 985 | 2642 |
| CG31245 | DRSC15498 | – | 12053 | – | 2581 | – |
| fu | DRSC20333 | – | 20593 | – | 8792 | – |
| CG5727 | DRSC02882 | – | 12445 | – | 2957 | – |
| CG11211 | DRSC04851 | – | 3030 | 10724 | 992 | 4235 |
| Gos28 | DRSC16292 | – | 21345 | – | 4987 | – |
| Gos28 | DRSC22859 | – | 6.81e5 | 6.73e5 | 2.54e5 | 3.00e5 |
| CG8578 | DRSC20114 | – | 2353 | 4885 | 822 | 1446 |
| peg | DRSC15216 | – | 17457 | – | 2716 | – |
| CG8326 | DRSC20103 | – | 2363 | 7088 | 924 | 2869 |
| CG42758 | DRSC10021 | – | 5799 | – | 2919 | – |
| CG7497 | DRSC10857 | – | 3627 | – | 2050 | – |
| Or63a | DRSC08681 | – | 6633 | – | 3252 | – |
| CG6689 | DRSC16095 | – | 4845 | – | 1523 | – |
| ptc | DRSC05117 | – | 20919 | – | 11045 | – |
| ptc | DRSC07669 | – | 5152 | 8931 | 1537 | 3802 |
| CG32299 + CG32298 | DRSC07980 | – | 2930 | – | 1265 | – |
| CG32299 + CG32298 | DRSC22354 | – | 5.12e5 | 4.70e5 | 1.75e5 | 1.54e5 |
| Den1 | DRSC07195 | – | 7804 | – | 2972 | – |
| CG7304 | DRSC10804 | – | 7821 | – | 2561 | – |
| RpS13 | DRSC03419 | – | 6676 | – | 3186 | – |
| CG15628 | DRSC00256 | Wg reporter activity raised (active) | 40230 | – | 3708 | – |
| CG15628 | DRSC00463 | – | 2400 | 9104 | 1044 | 2534 |
| CG1910 | DRSC15400 | – | 1891 | 6733 | 934 | 2234 |
| Tmem63 | DRSC06063 | – | 2437 | 5040 | 897 | 2067 |

Reagents listed so far with an active call:
| Target gene | DRSC id | reporter change call, replicate 1 | firefly reporter light, replicate 1 | firefly reporter light, replicate 2 | Renilla control light, replicate 1 | Renilla control light, replicate 2 |
| --- | --- | --- | --- | --- | --- | --- |
| CkIalpha | DRSC20231 | Wg reporter activity raised (active) | 1.07e5 | – | 7161 | – |
| CG15628 | DRSC00256 | Wg reporter activity raised (active) | 40230 | – | 3708 | – |
